{"sequences": {"note": "Protein sequences, listed by entry. Tags and fused reporters are not part of them. Lines headed by an entry give the natural chain unless they say otherwise; changes in a name come on top.", "UniProt P18054": "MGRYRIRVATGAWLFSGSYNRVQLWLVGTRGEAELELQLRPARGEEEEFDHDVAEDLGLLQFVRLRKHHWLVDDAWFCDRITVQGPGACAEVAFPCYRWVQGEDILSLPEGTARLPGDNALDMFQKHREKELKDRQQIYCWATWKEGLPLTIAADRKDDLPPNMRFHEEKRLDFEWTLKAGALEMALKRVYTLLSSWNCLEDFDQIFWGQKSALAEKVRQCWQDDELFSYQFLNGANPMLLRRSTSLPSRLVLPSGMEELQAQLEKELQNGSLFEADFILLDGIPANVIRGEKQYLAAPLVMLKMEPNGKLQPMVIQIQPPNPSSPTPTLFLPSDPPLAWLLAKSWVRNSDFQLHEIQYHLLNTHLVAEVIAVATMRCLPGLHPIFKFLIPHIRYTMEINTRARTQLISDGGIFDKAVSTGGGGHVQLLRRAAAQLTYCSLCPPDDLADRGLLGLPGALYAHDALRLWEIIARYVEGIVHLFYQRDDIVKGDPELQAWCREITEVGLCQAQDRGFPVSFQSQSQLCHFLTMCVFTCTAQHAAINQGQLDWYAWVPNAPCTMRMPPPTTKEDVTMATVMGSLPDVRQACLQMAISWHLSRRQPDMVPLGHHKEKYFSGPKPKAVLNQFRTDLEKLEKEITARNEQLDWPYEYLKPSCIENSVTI"}, "source": "PubChem BioAssay AID1671190", "about": "(National Center for Advancing Translational Sciences (NCATS), 2021)", "note": "Where “and” joins values, the source holds several entries; their conditions need not be identical. Equal values may be shown once. Among all 580,000 compounds or so, about 6,100 (1.1%) were called active. Inconclusive means that the source gave no clear call. Such entries were picked first, then a sample of the others. Calls come from the whole dose curve; as a rule, active = well fitted inhibition curve with a large enough effect; inconclusive = small, poorly fitted or top-dose-only effect, or another doubt; inactive = no such curve, though single readings can be large or run the other way. A potency beside an inconclusive call is a rough fit, not a confirmed value. % is set by controls: 0 for no effect and ±100 for the full control effect; potency is the fitted concentration of half-maximal effect."}
{"biological_target": "Polyunsaturated fatty acid lipoxygenase ALOX12 (Homo sapiens) (UniProt P18054)", "assay": "Primary qHTS assay for inhibitors of human arachidonate 12S-lipoxygenase (ALOX12): Round 2", "conditions": "purified 12hLO, xylenol orange hydroperoxide absorbance; activity change, negative = inhibition: at 108 µM (top of the series) unless noted", "method_in_brief": "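Purified human 12hLO (150 nM final) in 25 mM Hepes, 0.01% Triton X-100, pH 7.0 was preincubated 15 min at room temperature with compound. Then 40 uM arachidonic acid was added, 30 min. Hydroperoxide was read by Fe-XO absorbance ratio 573/405 nm.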"}
{"compound": "COc1ccc(NC(=O)N(C)C[C@H]2Oc3ccc(NC(=O)Cc4ccccc4)cc3CC(=O)N([C@H](C)CO)C[C@H]2C)cc1", "Potency": "inconclusive: 141 µM [inhibitor, single point]"}
{"compound": "CSc1nsc(/C=C/Nc2ccc(O)cc2C)c1C#N", "Potency": "active: 35.5 µM"}
{"compound": "CCOC(=O)C1C2C=CC(C3CC23)C1C(=O)OCC(=O)c1ccccc1", "note": "(stereo not given)", "activity change, negative = inhibition": "inactive: 1.94%"}
{"compound": "COc1cc(N)c(Cl)cc1C(=O)OCC(=O)N1c2ccccc2NC(=O)C1(C)C", "Potency": "inconclusive: 50.1 µM [inhibitor, partial curve, poor fit]"}
{"compound": "O=C1CC(NS(=O)(=O)c2ccccc2)CN1c1ccc2c(c1)OCCO2", "note": "(stereo not given)", "Potency": "inconclusive: 63.1 µM [inhibitor, partial curve, poor fit]"}
{"compound": "CCC(=O)Oc1ccc2c(c1)O/C(=C\\c1ccco1)C2=O", "Potency": "active: 25.1 µM"}
{"compound": "O=C(c1ccc(Cl)cc1)N1CCN(c2cc(=O)[nH]nc2-c2ccccc2)CC1", "Potency": "inconclusive: 89.1 µM [inhibitor, single point]"}
{"compound": "Cc1ccccc1N1CCN(C2CCCN(C(=O)CCC(F)(F)F)C2)CC1", "note": "(stereo not given)", "Potency": "inconclusive: 100 µM [inhibitor, single point]"}
{"compound": "Fc1cccc(C[n+]2csc3ccccc32)c1", "Potency": "active: 17.8 µM"}
{"compound": "COC(=O)c1nc2n(n1)C(c1ccccc1Cl)C(C(=O)Nc1ccc(Cl)cc1)=C(C)N2", "note": "(stereo not given)", "Potency": "inconclusive: 12.6 µM [inhibitor, partial curve, poor fit]"}
{"compound": "C=CS(=O)(=O)c1c2cc(OC)ccc2nc2ccc(OC)cc12", "activity change, negative = inhibition": "inactive: -26.7%"}
{"compound": "COc1ccc(S(=O)(=O)CCC(=O)N2CC(=O)N(CCc3ccccc3)C(=O)C2)cc1", "Potency": "inconclusive: 39.8 µM [inhibitor, partial curve, poor fit]"}
{"compound": "O=C1[C@H]2[C@@H](c3ccccc3)N[C@]3(CCCN(CC4CCCCC4)C3=O)[C@H]2C(=O)N1Cc1ccccc1", "Potency": "inconclusive: 79.4 µM [inhibitor, partial curve, poor fit]"}
{"compound": "CCOc1ccc(CCNCc2c(C(=O)O)c(C)n(Cc3ccccc3F)c2C)cc1", "Potency": "inconclusive: 89.1 µM [inhibitor, partial curve, poor fit]"}
{"compound": "Cc1ccc(C(=O)N(NC2=NS(=O)(=O)c3ccccc32)S(=O)(=O)c2ccc(C)cc2)cc1", "Potency": "inconclusive: 44.7 µM [inhibitor, partial curve, poor fit]"}
{"compound": "C/C(=C\\c1ccccc1)C(=O)Nc1ccc(C)cc1C", "Potency": "inconclusive: 89.1 µM [inhibitor, single point]"}
{"compound": "CN1CC(=O)N(C2CCCNCC2)Cc2c1ncnc2N1CCOCC1", "note": "(stereo not given)", "Potency": "inconclusive: 11.2 µM [inhibitor, full curve]"}
{"compound": "O=[N+]([O-])c1cccc(/C=C/c2ccc3cccc(O)c3n2)c1", "Potency": "inconclusive: 22.4 µM [inhibitor, single point]"}
{"compound": "C/C(Cc1ccccc1)=N\\NC(=O)CNC(=O)c1ccccc1", "activity change, negative = inhibition": "inactive: 5.09%"}
{"compound": "Cc1ccc(-c2ccc(SCC(=O)N3CCN(c4ccccc4)CC3)nn2)cc1", "activity change, negative = inhibition": "inactive: 0.682%"}
{"compound": "c1ccc(NN=C(c2ccccc2)c2cccs2)cc1", "Potency": "inconclusive: 5.01 µM [inhibitor, full curve, poor fit]"}
{"compound": "OCCCCCN=c1cc(-c2ccccc2)oc2ccc(Cl)cc12", "activity change, negative = inhibition": "inactive: 109%"}
{"compound": "COc1ccc(NC(=O)CSC2=NC3(CCCCC3)Nc3ccccc32)cc1", "Potency": "inconclusive: 56.2 µM [inhibitor, partial curve, poor fit]"}
{"compound": "CCOc1ccc2nc(Cl)c(CN(C(=O)c3cnccn3)C3CCCC3)cc2c1", "Potency": "inconclusive: 50.1 µM [inhibitor, partial curve, poor fit]"}
{"compound": "COc1cc(/C=C/C(=O)O)cc(Br)c1O", "activity change, negative = inhibition": "inactive: -13.3%"}
{"compound": "Cc1ccccc1Nc1nc(CSc2nnc(-c3ccoc3C)n2C)cs1", "activity change, negative = inhibition": "inactive: -21.3%"}
{"compound": "COc1ccc(NS(=O)(=O)c2ccc3c(c2)[C@H]2C=CC[C@H]2[C@@H](c2ccc(C(=O)O)cc2)N3)cc1", "Potency": "inconclusive: 44.7 µM [inhibitor, partial curve, poor fit] and active: 28.2 µM"}
{"compound": "O=C1C=C(NCc2ccccc2)c2ccccc2C1=O", "Potency": "inconclusive: 39.8 µM [inhibitor, partial curve, poor fit]"}
{"compound": "CCSc1ncc2c(=O)n(CC(=O)Nc3cccc(Br)c3)cnc2n1", "Potency": "inconclusive: 100 µM [inhibitor, single point]"}
{"compound": "Cc1ccc2c(C)c(CCC(=O)Nc3ccc(Cl)cc3)c(=O)oc2c1", "activity change, negative = inhibition": "inactive: -4.57%"}
{"compound": "Cc1cc(C)cc(N(CC(=O)NC(C(C)C)C(C)C)S(=O)(=O)c2ccccc2)c1", "activity change, negative = inhibition": "inactive: -14.4%"}
{"compound": "CN(C(=O)c1ccc(NC(=O)Cc2cccc(NC(=O)C3CCCN(C(=O)C4CCCC4)C3)c2)cc1)C1CCCC1", "note": "(stereo not given)", "activity change, negative = inhibition": "inactive: 11.7%"}
{"compound": "NNc1nncc2ccccc12", "Potency": "inactive and inconclusive: 7.86 µM [inhibitor, single point]"}
{"compound": "CCOc1cccc(C(=O)NC(=S)Nc2ccccc2)c1", "Potency": "active: 14.1 µM"}
{"compound": "COc1ccccc1NS(=O)(=O)c1cc([N+](=O)[O-])ccc1N/N=C/c1sc(N2CCOCC2)nc1-c1ccccc1", "Potency": "inconclusive: 44.7 µM [inhibitor, partial curve, poor fit]"}
{"compound": "C(=C\\c1ccccc1)/CN1CCN(C(c2ccccc2)c2nnnn2Cc2ccccc2)CC1", "note": "(stereo not given)", "Potency": "inconclusive: 44.7 µM [inhibitor, partial curve]"}
{"compound": "CCCCn1nnnc1C(c1ccccc1)N1CCCN(Cc2ccc(F)cc2)CC1", "note": "(stereo not given)", "Potency": "inconclusive: 0.355 µM [inhibitor, full curve]"}
{"compound": "CCc1cccc(NC(=O)C2CCN(C(=O)c3nnn4c3COC(c3ccc(OC)cc3)C4)CC2)c1", "note": "(stereo not given)", "Potency": "inconclusive: 70.8 µM [inhibitor, partial curve]"}
{"compound": "Oc1c(/C=C/C=C/C=Nc2ccccc2)sc(=S)n1Cc1ccccc1", "Potency": "active: 12.6 µM"}
{"compound": "COC(=O)c1cn(-c2ccccc2)nc1-c1ccncc1", "activity change, negative = inhibition": "inactive: -18.5%"}
{"compound": "COc1ncc2ncc(=O)n(C[C@H]3CCCO3)c2n1", "Potency": "inconclusive: 3.55 µM [inhibitor, partial curve, poor fit]"}
{"compound": "COc1ccc2ncc(C#N)c(Nc3cc(OC)c(OC)c(OC)c3)c2c1", "Potency": "inconclusive: 17.8 µM [inhibitor, partial curve, poor fit]"}
{"compound": "CS(=O)(=O)NC[C@H]1OC[C@@H](NC2CCC2)[C@@H]1O", "Potency": "inconclusive: 141 µM [inhibitor, partial curve, poor fit]"}
{"compound": "CCCc1ccc(C(=O)NNc2ccc(F)cc2)cc1", "Potency": "active: 17.8 µM"}
{"compound": "COc1cccc(N2C(=O)NC(=NC3CCCCC3)C23CCCN(Cc2ccc(N(C)C)cc2)C3)c1", "note": "(stereo not given)", "Potency": "inconclusive: 79.4 µM [inhibitor, single point]"}
{"compound": "O=C1NCC(=O)N2CCN(C3CCN(Cc4ccco4)CC3)CC12", "note": "(stereo not given)", "activity change, negative = inhibition": "inactive: 62.8%"}
{"compound": "COc1cccc(N2CCN(C(=O)c3ccc4c(Cl)c5c(nc4c3)CCCC5)CC2)c1", "Potency": "inconclusive: 5.62 µM [inhibitor, partial curve, poor fit]"}
{"compound": "COc1ccc(-c2nc(SCC(=O)Nc3cccc(C(F)(F)F)c3)n[nH]2)cc1", "Potency": "inconclusive: 39.8 µM [inhibitor, full curve, poor fit]"}
{"compound": "Cc1ccc(S(=O)(=O)N2CCC(C(=O)Nc3ccccc3N3CCCC3)CC2)cc1", "Potency": "inconclusive: 56.2 µM [inhibitor, partial curve, poor fit]"}
{"compound": "C=CCNC(=S)NNC(=O)COc1ccc(Cl)cc1Cl", "Potency": "inconclusive: 56.2 µM [inhibitor, partial curve, poor fit]"}
{"compound": "Cc1ccc(C(=O)N/C(=C\\c2cn(C)c3ccccc23)C(=O)N2CCN(C)CC2)cc1", "Potency": "inconclusive: 35.5 µM [inhibitor, partial curve]"}
{"compound": "O=C(COC(=O)CC1CC2CCC1C2)Nc1ccc([N+](=O)[O-])cc1C(F)(F)F", "note": "(stereo not given)", "Potency": "inconclusive: 1.58 µM [inhibitor, full curve]"}
{"compound": "O=C1c2cccc3c(Cl)ccc(c23)C(=O)N1O", "Potency": "inconclusive: 12.6 µM [inhibitor, full curve, poor fit]"}
{"compound": "COc1ccc(C2=Nn3c(nnc3-c3ccncc3)SC2)cc1OC", "Potency": "inconclusive: 3.55 µM [inhibitor, full curve, poor fit]"}
{"compound": "CCN(CC)S(=O)(=O)c1ccc(Cl)c(NC(=O)COc2ccc3c(C)cc(=O)oc3c2)c1", "activity change, negative = inhibition": "inactive: -9.6%"}
{"compound": "C/C(=N\\Nc1ccc(F)cc1)c1ccncc1", "Potency": "inconclusive: 44.7 µM [inhibitor, partial curve, poor fit]"}
{"compound": "Cc1ccc(C(C)C)c(OCc2n[nH]c(=S)o2)c1", "Potency": "inconclusive: 70.8 µM [inhibitor, partial curve, poor fit]"}
{"compound": "Cc1ccc(CN2CCOc3ccc(CN4CCC(O)(c5cccnc5)CC4)cc3C2)cc1", "activity change, negative = inhibition": "inactive: 0.508%"}
{"compound": "O=S(=O)(Nc1ncc(CN2CC[C@H]3CNC[C@H]32)cn1)c1ccccc1", "Potency": "inconclusive: 7.94 µM [inhibitor, full curve]"}
{"compound": "CCOc1ccc2[nH]c3c(NCCC(C)C)ncnc3c2c1", "activity change, negative = inhibition": "inactive: 90%"}
{"compound": "Cc1ccc(C(=O)Nc2cccc(C(O)c3ccccc3)c2)cc1", "note": "(stereo not given)", "Potency": "inconclusive: 100 µM [inhibitor, partial curve, poor fit]"}
{"compound": "CCOC(=O)c1c(C)n(C)c2cc(-c3ccc(C)cc3)c(O)cc12", "Potency": "inconclusive: 50.1 µM [inhibitor, partial curve, poor fit]"}
{"compound": "CCn1cc(S(=O)(=O)N2CCC(c3noc(-c4ccncc4)n3)C2)cn1", "note": "(stereo not given)", "activity change, negative = inhibition": "inactive: 27.5%"}
{"compound": "CCN(c1ccc(NC(=O)c2ccc3nc[nH]c3c2)cc1)C(C)C", "Potency": "inconclusive: 112 µM [inhibitor, single point]"}
{"compound": "CN(Cc1ccncc1)Cc1ccc(-c2ccccc2)cc1", "activity change, negative = inhibition": "inactive: 101% [at 176 µM]"}
